Test results from PMC11180190.
These are yes or no findings as the source states them, for the method shown. Binding seen in cells or lysates may run through a third protein. Some entries that bind do so weakly or less than the wild type.

Protein sequences, listed by entry. Tags and fused reporters are not part of them.
UniProt P19532: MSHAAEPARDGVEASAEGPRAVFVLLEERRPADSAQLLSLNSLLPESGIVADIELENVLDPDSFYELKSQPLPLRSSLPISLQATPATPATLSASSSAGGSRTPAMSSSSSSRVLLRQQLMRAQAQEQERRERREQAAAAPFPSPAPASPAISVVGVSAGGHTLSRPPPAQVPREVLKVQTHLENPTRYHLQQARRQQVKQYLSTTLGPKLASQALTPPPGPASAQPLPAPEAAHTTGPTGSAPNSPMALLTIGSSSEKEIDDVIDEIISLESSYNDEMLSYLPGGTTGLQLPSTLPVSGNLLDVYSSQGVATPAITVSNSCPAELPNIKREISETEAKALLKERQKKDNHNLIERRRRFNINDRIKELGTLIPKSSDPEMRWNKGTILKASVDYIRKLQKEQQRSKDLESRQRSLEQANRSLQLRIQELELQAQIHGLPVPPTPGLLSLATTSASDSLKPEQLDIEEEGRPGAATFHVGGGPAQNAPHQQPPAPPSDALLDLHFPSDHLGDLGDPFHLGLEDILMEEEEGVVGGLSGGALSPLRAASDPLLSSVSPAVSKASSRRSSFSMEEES
UniProt P49840: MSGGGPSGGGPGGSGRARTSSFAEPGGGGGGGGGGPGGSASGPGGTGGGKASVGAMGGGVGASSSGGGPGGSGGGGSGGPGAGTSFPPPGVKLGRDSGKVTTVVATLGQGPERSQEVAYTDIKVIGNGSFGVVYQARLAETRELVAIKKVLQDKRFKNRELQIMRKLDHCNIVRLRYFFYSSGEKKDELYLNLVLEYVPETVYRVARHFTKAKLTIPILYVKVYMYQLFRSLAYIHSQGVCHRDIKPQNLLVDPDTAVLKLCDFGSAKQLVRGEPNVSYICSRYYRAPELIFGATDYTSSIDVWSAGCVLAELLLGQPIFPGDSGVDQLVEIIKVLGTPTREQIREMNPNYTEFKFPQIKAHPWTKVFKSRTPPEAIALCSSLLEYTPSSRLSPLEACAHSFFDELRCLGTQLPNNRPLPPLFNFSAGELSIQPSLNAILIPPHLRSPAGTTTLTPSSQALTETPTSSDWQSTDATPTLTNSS
UniProt P49841: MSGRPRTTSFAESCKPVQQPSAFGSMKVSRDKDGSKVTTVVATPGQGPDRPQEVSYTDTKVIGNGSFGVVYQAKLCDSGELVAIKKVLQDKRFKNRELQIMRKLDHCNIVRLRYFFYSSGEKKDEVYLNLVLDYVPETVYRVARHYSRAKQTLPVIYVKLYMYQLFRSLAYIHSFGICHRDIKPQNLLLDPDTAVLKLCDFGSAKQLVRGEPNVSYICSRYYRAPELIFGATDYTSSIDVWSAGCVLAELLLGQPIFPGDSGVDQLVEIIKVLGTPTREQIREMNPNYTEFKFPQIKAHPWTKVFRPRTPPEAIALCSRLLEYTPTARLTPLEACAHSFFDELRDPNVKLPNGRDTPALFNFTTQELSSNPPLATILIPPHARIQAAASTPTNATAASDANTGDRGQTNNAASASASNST

Target: Flag-tagged TFE3 (transcription factor E3), wild type (UniProt P19532)
Assay: co-IP; HEK293T cells transfected with HA-GSK3α/β and Flag-TFE3 plasmids; NP40 lysate diluted to 1 μg/μL; anti-HA or anti-Flag magnetic beads, 4 °C overnight; western blot

binding	Substance
binds	HA-tagged GSK3α (glycogen synthase kinase 3α) (from UniProt P49840 1-483) (enzyme)
binds	HA-tagged GSK3β (glycogen synthase kinase 3β) (from UniProt P49841 1-420) (enzyme)
